{"source": "PubChem BioAssay AID1671195 (Yale University, 2021)", "screen": "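Regulators of LDL receptor activity judged by labelled LDL uptake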 (primary screen)", "cells": "human Huh7 hepatoma cells", "reagents": "siRNA pool against human genes, 18 nM", "timing": "about 2 to 2.5 days of knockdown, then 8 h LDL uptake", "conditions": "DiI-labelled LDL at 30 µg/ml for 8 h, in lipoprotein-deficient serum medium", "measurement": "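Per-cell DiI-LDL intensity by automated imaging; well means scaled to the plate median and given as a robust z-score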", "direction": "robust z-score: higher = more LDL uptake after knockdown", "call rule": "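Active when two or more replicates show a robust z-score above 2 or below -2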", "note": "This is an unselected part of about 22,000 reagents tested. About 1,510 of them (6.9%) count as active. 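Active includes knockdowns raising or lowering LDL uptake; positive z-scores mean more uptake, negative mean less.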 The numbers tell different reagents against one gene apart."}
{"Target gene": "CEL (GeneID 1056)", "reagent no.": 1, "robust z-score, replicate 1": -0.499, "robust z-score, replicate 2": -0.141, "robust z-score, replicate 3": 0.267, "Outcome": "inactive"}
{"Target gene": "SUN5 (GeneID 140732)", "reagent no.": 1, "robust z-score, replicate 1": 0.678, "robust z-score, replicate 2": 0.336, "robust z-score, replicate 3": -0.186, "Outcome": "inactive"}
{"Target gene": "LINC02232 (GeneID 401134)", "reagent no.": 1, "robust z-score, replicate 1": -0.348, "robust z-score, replicate 2": -0.564, "robust z-score, replicate 3": -0.455, "Outcome": "inactive"}
{"Target gene": "YDJC (GeneID 150223)", "reagent no.": 1, "robust z-score, replicate 1": -0.716, "robust z-score, replicate 2": -0.327, "robust z-score, replicate 3": -0.754, "Outcome": "inactive"}
{"Target gene": "FADS1 (GeneID 3992)", "reagent no.": 1, "robust z-score, replicate 1": -0.731, "robust z-score, replicate 2": -1.28, "robust z-score, replicate 3": -0.111, "Outcome": "inactive"}
{"Target gene": "PSKH1 (GeneID 5681)", "reagent no.": 1, "robust z-score, replicate 1": 0.87, "robust z-score, replicate 2": 0.352, "robust z-score, replicate 3": 0.654, "Outcome": "inactive"}
{"Target gene": "ZNF438 (GeneID 220929)", "reagent no.": 1, "robust z-score, replicate 1": 0.361, "robust z-score, replicate 2": 0.128, "robust z-score, replicate 3": 0.156, "Outcome": "inactive"}
{"Target gene": "ZSWIM8 (GeneID 23053)", "reagent no.": 1, "robust z-score, replicate 1": 1.66, "robust z-score, replicate 2": 1.21, "robust z-score, replicate 3": 1.08, "Outcome": "inactive"}
{"Target gene": "ZSWIM8 (GeneID 23053)", "reagent no.": 2, "robust z-score, replicate 1": 0.647, "robust z-score, replicate 2": -1.89, "robust z-score, replicate 3": 0.341, "Outcome": "inactive"}
{"Target gene": "ZNF708 (GeneID 7562)", "reagent no.": 1, "robust z-score, replicate 1": 0.656, "robust z-score, replicate 2": 0.384, "robust z-score, replicate 3": 0.437, "Outcome": "inactive"}
{"Target gene": "CCDC90B (GeneID 60492)", "reagent no.": 1, "robust z-score, replicate 1": 1.84, "robust z-score, replicate 2": 1.83, "robust z-score, replicate 3": 1.4, "Outcome": "inactive"}
{"Target gene": "LOC440092 (retired record) (GeneID 440092)", "reagent no.": 1, "robust z-score, replicate 1": -1.89, "robust z-score, replicate 2": -1.67, "robust z-score, replicate 3": -1.77, "Outcome": "inactive"}
{"Target gene": "GALNTL6 (GeneID 442117)", "reagent no.": 1, "robust z-score, replicate 1": -0.979, "robust z-score, replicate 2": -1.06, "robust z-score, replicate 3": -0.622, "Outcome": "inactive"}
{"Target gene": "CLEC1B (GeneID 51266)", "reagent no.": 1, "robust z-score, replicate 1": -0.615, "robust z-score, replicate 2": 0.108, "robust z-score, replicate 3": -0.416, "Outcome": "inactive"}
{"Target gene": "ANKRD49 (GeneID 54851)", "reagent no.": 1, "robust z-score, replicate 1": -0.629, "robust z-score, replicate 2": -0.142, "robust z-score, replicate 3": -1.12, "Outcome": "inactive"}
{"Target gene": "HTR7 (GeneID 3363)", "reagent no.": 1, "robust z-score, replicate 1": -0.787, "robust z-score, replicate 2": -0.721, "robust z-score, replicate 3": -0.979, "Outcome": "inactive"}

Ordered by “robust z-score, replicate 2” (ascending): some entries from above
{"Target gene": "CEL (GeneID 1056)", "reagent no.": 1, "robust z-score, replicate 1": -0.499, "robust z-score, replicate 2": -0.141, "robust z-score, replicate 3": 0.267, "Outcome": "inactive"}
{"Target gene": "SUN5 (GeneID 140732)", "reagent no.": 1, "robust z-score, replicate 1": 0.678, "robust z-score, replicate 2": 0.336, "robust z-score, replicate 3": -0.186, "Outcome": "inactive"}
